The text below walks through data of PubChem BioAssay AID743402 (Broad Institute, 2014).

Screen size: about 1,200 compounds; about 140 (12%) were called active.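 How the source made its calls: active means fitted curve falls past -35% activity change at a dose under twice the top valid dose, in every replicate test; inconclusive means replicate tests disagree on the call; inactive means the rest, including activity in the opposite direction.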 The list lacks most of the strong results.

The experiment is described as follows: CFTR-F508del correctors, dose response, FRT cells, YFP quenching, cherry-pick (AID 743402).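 Further: compounds act as correctors raising surface CFTR-F508del before acute activation.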 As to conditions: FRT CFTR-F508del YFP iodide quenching, 24 h, channel opened with forskolin and a potentiator; at 26 µM (top of the series) unless noted.
On to `COc1cccc(N2CCN(C(=O)c3ccc(CS(=O)c4ccc(C)cc4)o3)CC2)c1` (stereo not given), for which the activity change, negative = more quenching (active) was inactive: -9.58%.

Take `C[C@H]1CCCCO[C@H](CN(C)C(=O)Nc2ccc(C(F)(F)F)cc2)[C@@H](C)CN([C@@H](C)CO)C(=O)c2cc(NC(=O)Nc3ccc(F)cc3)ccc2O1`: the activity change, negative = more quenching (active) is inactive: 27.6%.

Take `COc1ccc(C#Cc2ccc3c(c2)[C@@H]2[C@@H](CCN2C(=O)c2cccc(F)c2)[C@@H](CO)N3)cc1`: the activity change, negative = more quenching (active) was inactive: 10.2%.

`COCCNc1nc(Nc2ccc(C)cc2C)c2sccc2n1`: the activity change, negative = more quenching (active) is inactive: -9.58%.

`COc1ccc(CCn2c(NN=C(C)C)nc3c2c(=O)[nH]c(=O)n3C)cc1`: the activity change, negative = more quenching (active) was inactive: -10%.

With `O=C(CCCl)Nc1nc2c(s1)CCc1ccccc1-2`, the activity change, negative = more quenching (active) is inactive: 1.61%.

Take `COc1cc(/C=C(\C#N)c2nc3ccccc3[nH]2)cc(OC)c1O`: the activity change, negative = more quenching (active) is inactive: 1.72%.

Take `CCN(C(=O)COC(=O)/C=C/c1c(C)nn(-c2ccccc2)c1C)c1c(N)n(Cc2ccccc2)c(=O)[nH]c1=O`: the activity change, negative = more quenching (active) was inactive: 16.2%.

With `COc1cc(OC)cc(C(=O)NC(=S)Nc2ccc3oc(=O)ccc3c2)c1`, the activity change, negative = more quenching (active) is inactive: 12.5%.

On to `CCOc1ccc(NC(=O)c2ccccc2NC(=O)CNC2CCCC(C)C2C)cc1` (stereo not given), for which the activity change, negative = more quenching (active) was inactive: -4.74%.

For the compound `Cc1ccc(NC(=O)c2ccc(Cl)c(S(=O)(=O)Nc3c(C)n(C)n(-c4ccccc4)c3=O)c2)cc1Cl`, the activity change, negative = more quenching (active) is inactive: -12.7%.

With `COc1ccc(NC(=O)Nc2ccc3c(c2)C(=O)N([C@H](C)CO)C[C@@H](C)[C@H](CN(C)Cc2ccc(C(F)(F)F)cc2)OCCCC[C@H](C)O3)cc1`, the activity change, negative = more quenching (active) was inactive: 6.25%.

Turning to `COc1ccccc1/C=C/C=N/NC(=O)CCn1cnc2ccccc21`, the activity change, negative = more quenching (active) was inactive: 0%.

In the case of `O=C(Cc1ccccn1)NCC[C@H]1CC[C@H](NC(=O)Nc2ccc(C(F)(F)F)cc2)[C@H](CO)O1`, the activity change, negative = more quenching (active) is inactive: 3.57%.

Turning to `COc1ccc(/C(C)=N/NC(=O)c2cccc(S(=O)(=O)N3CCCC3)c2)c(O)c1`, the activity change, negative = more quenching (active) is inactive: -7.96%.

Take `COc1ccc(C#Cc2ccc3c(c2)O[C@H](CN(C)C(=O)Nc2cccc(OC)c2)[C@H](C)CN([C@H](C)CO)S3(=O)=O)cc1`: the activity change, negative = more quenching (active) was inactive: 13.1% [at 23.5 µM].

For the compound `CCCOc1ccc(C(=O)CCCC(=O)c2ccc(OCCC)cc2)cc1`, the activity change, negative = more quenching (active) is inactive: 10%.

For `CN1C(=O)c2cc(NC(=O)Cc3ccccc3)ccc2OC[C@@H]2O[C@H](CC(=O)NCc3ccc(Cl)cc3)CC[C@H]21`, the activity change, negative = more quenching (active) was inactive: -16%.

On to `Cc1noc(C)c1COc1ccc(C(=O)NNC(=O)c2ccccc2)cc1`, for which the activity change, negative = more quenching (active) was inactive: -3.12%.

As to `C=CCn1c(SCC(=O)N(C)C2CCS(=O)(=O)C2)nc2ccccc2c1=O` (stereo not given), the activity change, negative = more quenching (active) was inactive: 6.46%.
